In patent US20100087424A1, “TRICYCLIC NITROGEN CONTAINING HETEROCYCLES AS ANTIBACTERIAL AGENTS” (Glaxo Group Limited, priority 2007, published 2010):
Some entries share one result that the patent states for a list of compounds. For part of these data: At least one structure is not confirmed: it was looked up by name or label, or the drawing left a doubt.

Key:
[1] = tested on: Mycobacterium tuberculosis H37Rv; assay: Mycobacterium tuberculosis H37Rv Inhibition Assay (resazurin fluorescence); assay type: cell-based; conditions: H37Rv strain (ATCC25618), Middlebrook 7H9+ADC, six days at 37° C., resazurin read after 48 hours
[2] = tested on: Gram-positive organisms, including Staphylococcus aureus, Streptococcus pneumoniae, Streptococcus pyogenes, Enterococcus faecalis and Enterococcus faecium …; assay type: cell-based; conditions: no activity against the listed organisms at ≦16 μg/ml

SMILES | MIC value [1] [µg/mL] | MIC [2] [µg/mL]
Cl.O=c1ccc2ncc(F)c3c2n1[C@H](CN1CC[C@H](NCc2cc4c(cn2)OCCC4)[C@H](O)C1)CO3 [Example 50, (6R)-6-({(3R,4S)-4-[(3,4-dihydro-2H-pyrano[2,3-c]pyridin-6-ylmethyl)amino]-3-hydroxy-1-piperidinyl}methyl)-3-fluoro-5,6-sihydro-8H-[1,4]oxazino[2,3,4-de]-1,5-naphthyridin-8-one hydrochloride] | ≤ 2.8 | –
O=c1ccc2ncc(F)c3c2n1[C@H](CN1CCC(NCc2ccc4ncnn4c2)CC1)CO3 [Example 88, (6R)-3-fluoro-6-({4-[([1,2,4]triazolo[1,5-a]pyridin-6-ylmethyl)amino]-1-piperidinyl}methyl)-5,6-dihydro-8H-[1,4]oxazino[2,3,4-de]-1,5-naphthyridin-8-one] | – | > 16
O=c1ccc2ncc(F)c3c2n1[C@H](CN1CC[C@H](NCc2ccc4ncnn4c2)[C@H](O)C1)CO3 [Example 97, (6R)-3-fluoro-6-({(3R,4S)-3-hydroxy-4-[([1,2,4]triazolo[1,5-a]pyridin-6-ylmethyl)amino]-1-piperidinyl}methyl)-5,6-dihydro-8H-[1,4]oxazino[2,3,4-de]-1,5-naphthyridin-8-one] | – | > 16
